Test results from article PMC11904782.

The chains behind the UniProt entries cited, without tags or fusion partners. Where a name states a change or a piece, a line headed by the entry shows the natural chain unless it says otherwise.
UniProt Q8NFD5: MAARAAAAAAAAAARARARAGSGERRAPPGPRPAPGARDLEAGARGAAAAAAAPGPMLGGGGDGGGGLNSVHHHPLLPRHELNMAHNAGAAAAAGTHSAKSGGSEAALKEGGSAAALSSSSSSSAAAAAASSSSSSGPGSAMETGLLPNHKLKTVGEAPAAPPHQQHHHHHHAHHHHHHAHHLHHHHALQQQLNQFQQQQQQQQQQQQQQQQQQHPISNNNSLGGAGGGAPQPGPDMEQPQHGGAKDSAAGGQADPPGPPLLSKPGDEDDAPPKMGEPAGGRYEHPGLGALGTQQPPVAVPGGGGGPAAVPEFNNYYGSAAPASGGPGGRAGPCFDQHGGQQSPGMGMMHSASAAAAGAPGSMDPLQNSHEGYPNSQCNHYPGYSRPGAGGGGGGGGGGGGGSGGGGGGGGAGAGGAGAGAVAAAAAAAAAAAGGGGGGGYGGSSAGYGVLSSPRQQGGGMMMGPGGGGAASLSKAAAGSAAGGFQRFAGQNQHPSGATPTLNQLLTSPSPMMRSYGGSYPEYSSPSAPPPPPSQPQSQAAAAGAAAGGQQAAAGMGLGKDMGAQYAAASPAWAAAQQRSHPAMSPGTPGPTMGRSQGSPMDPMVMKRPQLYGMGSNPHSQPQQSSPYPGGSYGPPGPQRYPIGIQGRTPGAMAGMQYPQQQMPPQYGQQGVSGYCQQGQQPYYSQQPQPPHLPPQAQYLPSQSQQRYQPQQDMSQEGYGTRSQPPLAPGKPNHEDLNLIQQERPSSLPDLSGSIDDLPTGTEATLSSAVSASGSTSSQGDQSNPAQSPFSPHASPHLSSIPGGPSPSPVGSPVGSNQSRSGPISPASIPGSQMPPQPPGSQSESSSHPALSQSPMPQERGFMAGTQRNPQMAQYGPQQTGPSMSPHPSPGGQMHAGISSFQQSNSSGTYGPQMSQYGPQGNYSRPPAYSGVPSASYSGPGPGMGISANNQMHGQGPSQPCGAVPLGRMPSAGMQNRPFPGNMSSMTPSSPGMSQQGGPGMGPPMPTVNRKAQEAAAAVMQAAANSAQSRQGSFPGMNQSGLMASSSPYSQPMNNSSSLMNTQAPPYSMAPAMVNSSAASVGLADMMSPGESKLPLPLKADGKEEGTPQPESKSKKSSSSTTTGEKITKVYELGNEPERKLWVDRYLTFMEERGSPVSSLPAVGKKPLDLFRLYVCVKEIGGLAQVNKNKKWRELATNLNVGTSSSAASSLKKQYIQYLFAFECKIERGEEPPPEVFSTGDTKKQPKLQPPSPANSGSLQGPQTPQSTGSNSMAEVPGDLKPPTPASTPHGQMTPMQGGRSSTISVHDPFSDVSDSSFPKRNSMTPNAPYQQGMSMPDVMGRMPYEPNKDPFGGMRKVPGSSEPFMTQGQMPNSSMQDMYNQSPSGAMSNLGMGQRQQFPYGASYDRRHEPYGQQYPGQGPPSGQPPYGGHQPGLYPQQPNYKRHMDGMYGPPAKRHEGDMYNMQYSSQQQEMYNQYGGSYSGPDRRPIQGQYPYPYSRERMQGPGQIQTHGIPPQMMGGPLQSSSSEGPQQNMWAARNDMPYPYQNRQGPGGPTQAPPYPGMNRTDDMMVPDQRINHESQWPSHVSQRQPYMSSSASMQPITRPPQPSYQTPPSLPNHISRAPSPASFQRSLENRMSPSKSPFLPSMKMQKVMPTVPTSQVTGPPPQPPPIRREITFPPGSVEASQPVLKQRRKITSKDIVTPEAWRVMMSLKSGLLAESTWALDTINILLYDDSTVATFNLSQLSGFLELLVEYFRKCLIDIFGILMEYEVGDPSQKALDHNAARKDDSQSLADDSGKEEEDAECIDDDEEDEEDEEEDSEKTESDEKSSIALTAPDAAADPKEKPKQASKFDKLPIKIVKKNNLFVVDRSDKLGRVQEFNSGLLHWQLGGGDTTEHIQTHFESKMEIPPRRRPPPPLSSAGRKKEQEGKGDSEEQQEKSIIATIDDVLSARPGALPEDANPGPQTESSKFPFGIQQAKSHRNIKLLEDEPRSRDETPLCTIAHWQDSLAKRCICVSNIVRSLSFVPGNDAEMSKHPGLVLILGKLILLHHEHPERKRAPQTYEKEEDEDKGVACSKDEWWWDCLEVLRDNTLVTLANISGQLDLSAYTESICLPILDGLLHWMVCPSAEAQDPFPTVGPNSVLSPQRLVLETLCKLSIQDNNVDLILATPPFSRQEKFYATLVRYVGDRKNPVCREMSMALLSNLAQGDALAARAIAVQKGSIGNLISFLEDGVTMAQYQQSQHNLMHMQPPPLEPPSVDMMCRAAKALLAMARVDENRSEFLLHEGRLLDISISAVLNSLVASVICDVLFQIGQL
UniProt P78527: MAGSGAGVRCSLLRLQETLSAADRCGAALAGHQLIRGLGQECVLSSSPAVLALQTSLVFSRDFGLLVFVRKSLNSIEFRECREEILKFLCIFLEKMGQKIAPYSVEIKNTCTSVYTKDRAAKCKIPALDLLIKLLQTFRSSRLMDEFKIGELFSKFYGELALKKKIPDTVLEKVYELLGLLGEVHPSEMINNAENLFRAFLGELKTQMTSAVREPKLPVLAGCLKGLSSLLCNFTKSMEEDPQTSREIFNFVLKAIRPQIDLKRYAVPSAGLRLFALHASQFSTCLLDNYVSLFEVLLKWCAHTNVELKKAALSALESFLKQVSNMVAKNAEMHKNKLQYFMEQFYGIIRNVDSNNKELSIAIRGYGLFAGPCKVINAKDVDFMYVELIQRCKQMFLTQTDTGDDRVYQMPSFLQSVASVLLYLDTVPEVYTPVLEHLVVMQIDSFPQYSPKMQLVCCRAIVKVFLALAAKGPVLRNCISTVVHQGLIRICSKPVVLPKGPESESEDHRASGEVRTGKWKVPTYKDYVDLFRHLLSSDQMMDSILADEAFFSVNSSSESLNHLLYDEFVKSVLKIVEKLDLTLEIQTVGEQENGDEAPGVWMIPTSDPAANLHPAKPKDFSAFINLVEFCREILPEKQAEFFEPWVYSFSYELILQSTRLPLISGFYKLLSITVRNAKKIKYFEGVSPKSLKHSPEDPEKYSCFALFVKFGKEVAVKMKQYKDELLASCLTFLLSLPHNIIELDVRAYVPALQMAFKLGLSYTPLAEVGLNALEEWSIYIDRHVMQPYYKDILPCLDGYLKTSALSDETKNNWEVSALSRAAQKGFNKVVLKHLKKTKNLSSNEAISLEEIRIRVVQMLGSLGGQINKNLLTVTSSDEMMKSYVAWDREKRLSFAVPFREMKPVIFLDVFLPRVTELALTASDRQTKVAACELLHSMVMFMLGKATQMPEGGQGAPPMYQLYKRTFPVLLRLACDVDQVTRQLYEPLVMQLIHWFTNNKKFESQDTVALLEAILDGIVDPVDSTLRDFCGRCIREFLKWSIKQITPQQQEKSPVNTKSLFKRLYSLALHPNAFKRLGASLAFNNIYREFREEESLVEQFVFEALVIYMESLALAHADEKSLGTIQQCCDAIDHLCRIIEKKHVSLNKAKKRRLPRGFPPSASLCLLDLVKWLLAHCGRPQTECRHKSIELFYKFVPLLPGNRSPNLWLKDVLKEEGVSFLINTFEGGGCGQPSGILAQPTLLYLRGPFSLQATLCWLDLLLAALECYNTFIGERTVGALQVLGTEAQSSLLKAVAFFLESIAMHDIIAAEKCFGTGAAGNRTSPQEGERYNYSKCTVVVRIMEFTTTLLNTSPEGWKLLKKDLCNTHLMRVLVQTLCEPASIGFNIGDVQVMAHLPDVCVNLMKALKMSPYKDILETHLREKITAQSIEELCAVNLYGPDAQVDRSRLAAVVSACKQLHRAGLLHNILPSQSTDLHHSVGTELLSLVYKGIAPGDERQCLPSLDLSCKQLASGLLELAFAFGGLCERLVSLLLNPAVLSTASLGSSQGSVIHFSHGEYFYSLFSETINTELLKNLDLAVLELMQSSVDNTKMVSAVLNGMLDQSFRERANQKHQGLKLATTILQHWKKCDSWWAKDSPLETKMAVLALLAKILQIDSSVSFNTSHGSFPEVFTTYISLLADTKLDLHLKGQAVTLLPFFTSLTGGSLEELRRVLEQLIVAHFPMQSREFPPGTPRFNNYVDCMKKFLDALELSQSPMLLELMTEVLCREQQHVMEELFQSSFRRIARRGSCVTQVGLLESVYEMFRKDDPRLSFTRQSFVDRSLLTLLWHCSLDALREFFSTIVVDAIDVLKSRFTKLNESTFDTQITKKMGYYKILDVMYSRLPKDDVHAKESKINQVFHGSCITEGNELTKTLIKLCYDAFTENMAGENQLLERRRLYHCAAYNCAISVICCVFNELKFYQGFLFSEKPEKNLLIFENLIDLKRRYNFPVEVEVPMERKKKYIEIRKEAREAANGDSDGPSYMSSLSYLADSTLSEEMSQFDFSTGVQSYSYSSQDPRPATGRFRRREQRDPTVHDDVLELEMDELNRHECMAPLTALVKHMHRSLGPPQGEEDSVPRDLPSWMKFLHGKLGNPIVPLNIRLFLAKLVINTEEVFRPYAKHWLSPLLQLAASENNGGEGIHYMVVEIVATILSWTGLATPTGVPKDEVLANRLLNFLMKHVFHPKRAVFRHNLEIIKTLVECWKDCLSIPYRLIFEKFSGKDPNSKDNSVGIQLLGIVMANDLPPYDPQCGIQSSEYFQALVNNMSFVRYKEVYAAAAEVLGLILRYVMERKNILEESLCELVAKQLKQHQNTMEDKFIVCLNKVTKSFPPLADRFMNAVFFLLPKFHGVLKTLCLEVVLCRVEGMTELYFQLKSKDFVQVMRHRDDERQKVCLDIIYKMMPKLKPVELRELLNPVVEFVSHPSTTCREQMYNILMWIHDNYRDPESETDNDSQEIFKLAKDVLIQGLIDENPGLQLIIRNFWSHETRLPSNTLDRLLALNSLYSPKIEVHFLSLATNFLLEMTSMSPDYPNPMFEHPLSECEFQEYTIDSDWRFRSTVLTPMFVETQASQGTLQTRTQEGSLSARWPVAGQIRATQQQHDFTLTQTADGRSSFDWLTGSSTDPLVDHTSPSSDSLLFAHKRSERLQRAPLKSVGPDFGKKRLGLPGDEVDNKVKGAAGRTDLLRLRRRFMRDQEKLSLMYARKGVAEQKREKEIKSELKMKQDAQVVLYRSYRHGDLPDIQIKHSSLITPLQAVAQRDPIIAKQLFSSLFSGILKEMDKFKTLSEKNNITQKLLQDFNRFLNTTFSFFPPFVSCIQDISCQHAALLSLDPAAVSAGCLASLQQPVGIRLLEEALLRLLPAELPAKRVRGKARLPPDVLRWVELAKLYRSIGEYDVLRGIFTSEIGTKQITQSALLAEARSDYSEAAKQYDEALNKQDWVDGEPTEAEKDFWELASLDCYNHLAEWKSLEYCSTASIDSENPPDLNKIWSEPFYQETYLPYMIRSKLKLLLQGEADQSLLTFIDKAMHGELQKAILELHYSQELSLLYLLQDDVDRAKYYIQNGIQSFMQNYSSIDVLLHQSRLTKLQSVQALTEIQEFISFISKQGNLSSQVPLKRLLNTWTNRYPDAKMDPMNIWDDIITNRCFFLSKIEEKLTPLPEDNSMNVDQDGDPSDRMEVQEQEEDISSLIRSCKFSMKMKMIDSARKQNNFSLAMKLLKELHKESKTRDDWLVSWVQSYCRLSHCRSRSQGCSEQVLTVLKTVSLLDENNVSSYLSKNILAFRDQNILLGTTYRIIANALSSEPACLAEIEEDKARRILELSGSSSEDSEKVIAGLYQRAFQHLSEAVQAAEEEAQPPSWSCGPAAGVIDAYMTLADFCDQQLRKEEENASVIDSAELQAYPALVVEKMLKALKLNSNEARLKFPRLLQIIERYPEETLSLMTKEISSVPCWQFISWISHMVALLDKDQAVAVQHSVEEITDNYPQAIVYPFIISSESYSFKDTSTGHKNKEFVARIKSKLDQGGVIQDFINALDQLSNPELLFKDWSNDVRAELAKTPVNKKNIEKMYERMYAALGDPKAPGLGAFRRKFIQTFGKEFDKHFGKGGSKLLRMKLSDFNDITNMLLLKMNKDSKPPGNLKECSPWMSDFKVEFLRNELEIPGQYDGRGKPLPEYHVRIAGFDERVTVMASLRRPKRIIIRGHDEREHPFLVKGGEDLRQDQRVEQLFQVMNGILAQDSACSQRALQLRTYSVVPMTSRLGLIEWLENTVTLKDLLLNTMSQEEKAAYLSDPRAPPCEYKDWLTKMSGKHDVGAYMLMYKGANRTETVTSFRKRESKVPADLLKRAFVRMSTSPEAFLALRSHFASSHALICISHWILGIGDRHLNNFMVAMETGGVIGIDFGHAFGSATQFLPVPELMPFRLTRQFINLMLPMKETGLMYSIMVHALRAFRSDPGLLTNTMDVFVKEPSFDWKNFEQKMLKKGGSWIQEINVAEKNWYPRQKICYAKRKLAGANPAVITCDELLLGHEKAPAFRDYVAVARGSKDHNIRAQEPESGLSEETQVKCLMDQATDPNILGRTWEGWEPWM

Target: GST–ARID1B–ARM: ARM domain of ARID1B (aa 1861–2236) (UniProt Q8NFD5)
Assay: pull-down; GST–ARID1A mutants or GST–ARID1B–ARM on Glutathione Sepharose beads incubated with HEK293 (methods: 293T) nuclear extract for 4 h at 4°C with RNase A and DNase I; bound proteins by immunoblot; only the target purified

In the case of “DNA-dependent protein kinase catalytic subunit (DNA-PKcs), endogenous wild type (from UniProt P78527 1-4128)”, the binding is reported as “binds”.

These are yes or no findings as the source states them, for the method shown. Binding seen in cells or lysates may run through a third protein. A result given as binding can be weak or reduced; the word gives no strength.
